The assay deals with P1534 leukemia ip, CD2F1 mice, survival T/C. Nature of the assay: NCI In Vivo Anticancer Drug Screen. Data for tumor model P1534 Leukemia (intraperitoneal) in CD2F1 (CDF1) mice. The following applies: T/C endpoint: mean survival time, higher T/C = longer survival. The method, then: The antitumor activity of compounds was measured in mice bearing transplantable tumors. Survival or tumor size were measured and the results are expressed as the measurement made in the treated group (T) divided by the measurement made in the vehicle treated control group (C). The tumor model used in this assay is P1534 Leukemia (intraperitoneal) in CD2F1 (CDF1) mice

[1] abbreviates: dose: 0.5 mg/kg/injection, schedule: Q01DX010 (ip), vehicle: saline.
[2] abbreviates: dose: 1.0 mg/kg/injection, schedule: Q01DX010 (ip), vehicle: saline.
[3] abbreviates: dose: 2.0 mg/kg/injection, schedule: Q01DX010 (ip), vehicle: saline.
Where [4] appears, read: dose: 4.0 mg/kg/injection, schedule: Q01DX010 (ip), vehicle: saline.
Setting [5] is: dose: 15.0 mg/kg/injection, schedule: Q01DX010 (ip), vehicle: saline.
Setting [6] is: dose: 60.0 mg/kg/injection, schedule: Q01DX010 (ip), vehicle: saline.
The mark [7] stands for this setting: dose: 125.0 mg/kg/injection, schedule: Q01DX010 (ip), vehicle: saline.
The mark [8] stands for this setting: dose: 250.0 mg/kg/injection, schedule: Q01DX010 (ip), vehicle: saline.
Where [9] appears, read: dose: 32.0 mg/kg/injection, schedule: Q01DX010 (ip), vehicle: saline.
Setting [10] is: dose: 25.0 mg/kg/injection, schedule: Q01DX010 (ip), vehicle: alkali diluted with saline.
The mark [11] stands for this setting: dose: 10.0 mg/kg/injection, schedule: Q01DX010 (ip), vehicle: saline.
The mark [12] stands for this setting: dose: 160.0 mg/kg/injection, schedule: Q01DX010 (ip), vehicle: saline.
Where [13] appears, read: dose: 150.0 mg/kg/injection, schedule: Q01DX005 (sc), vehicle: steroid suspending solution.
The mark [14] stands for this setting: dose: 300.0 mg/kg/injection, schedule: Q01DX005 (sc), vehicle: steroid suspending solution.
[15] abbreviates: dose: 20.0 mg/kg/injection, schedule: Q01DX010 (ip), vehicle: saline.
Where [16] appears, read: dose: 40.0 mg/kg/injection, schedule: Q01DX010 (ip), vehicle: saline.

The list does not hold the whole screen: it gathers tests that were run many times, whatever their T/C, doses with no T/C, and many T/C values between a quarter and a half above the control. Further doses and runs are listed elsewhere. T/C: endpoint of the treated group in % of that of the vehicle group. Some doses have a count of surviving animals in place of a T/C: the source files T/C as zero there, which appears to mark a toxic dose or a test without result, not a measured value. Some survivor counts are full or nearly so, which does not show that the dose was tolerated: the source hardly ever lists a survival T/C far under the control, and the zero likely stands for such cases as well. Survivors were counted at the toxicity check, usually on the fifth day, unless a day is given; later deaths do not show. Schedule codes are those of the source, read here as Q, the interval in days (D) or hours (H), X, the number of doses. Some entries were tested several times; the results are listed from low to high. For survival time, the PubChem record calls one and a half times the control and up active, and a quarter to a half above the control has no call in these data; cut-offs in other NCI protocols can differ. Some T/C values are followed by the survivors on the day toxicity was checked, most often the fifth; without a count, all were alive then. Signs of the kind (2×) say how often a value occurs here.

With `C1CN1c1nc(N2CC2)nc(N2CC2)n1`, the T/C is 100, 105, 108, 110 (2×), 117 % of control (dose: 0.13 mg/kg/injection, schedule: Q01DX010 (ip), vehicle: saline); 110, 119, 121 (2×), 151, 155 % of control (dose: 0.25 mg/kg/injection, schedule: Q01DX010 (ip), vehicle: saline); 99, 105, 110, 135 % of control under setting [1]. Moreover, the survivor count under setting [1] was 5 of 6 and 6 of 6; the survivor count under setting [2] is 3 of 6, 4 of 6, 6 of 6; the survivor count under setting [3] is 6 of 6.
Turning to `CS(=O)(=O)OCCN(CCOS(C)(=O)=O)c1ccc(N=O)cc1`, the T/C is 148 % of control under setting [1] and 129 % of control under setting [2]. For the same molecule, the survivor count reads like this: under setting [3], 5 of 6; under setting [4], 1 of 6.
Regarding `Nc1nncs1`, the survivor count under setting [5] is recorded as 6 of 6; the survivor count (dose: 30.0 mg/kg/injection, schedule: Q01DX010 (ip), vehicle: saline) is given as 6 of 6; the survivor count under setting [6] is 6 of 6.
Take `COc1ccc2c(c1OC)C(=O)O[C@@H]2[C@H]1c2c(cc3c(c2OC)OCO3)CCN1C`: the survivor count is, setting by setting: under setting [7], 6 of 6; under setting [8], 3 of 6; (dose: 500.0 mg/kg/injection, schedule: Q01DX010 (ip), vehicle: saline) 0 of 6.
Consider `CCC12CCCN3CCc4c(n(c5ccccc45)C(O)(C(=O)OC)C1)C32` (configuration not stated), for which the survivor count under setting [5] is 6 of 6.
On to `CCC(C)n1ncc2c(N(C)C)ncnc21` (configuration not stated), for which the survivor count (dose: 130.0 mg/kg/injection, schedule: Q01DX010 (ip), vehicle: saline) was 5 of 6.
Regarding `COc1cc2c3c(c4ccc(O)cc4c2cc1OC)[C@@H](O)[C@@H]1CCCN1C3`, under “dose: 10.0 mg/kg/injection, schedule: Q01DX009 (ip), vehicle: water”, the T/C was 134 % of control. Also, the survivor count is, setting by setting: (dose: 25.0 mg/kg/injection, schedule: Q01DX010 (ip), vehicle: water) 1 of 6; (dose: 35.0 mg/kg/injection, schedule: Q01DX010 (ip), vehicle: water) 3 of 6.
With `O=C(Nc1ccc(C2=NCCN2)cc1)c1ccc(C(=O)Nc2ccc(C3=NCCN3)cc2)c(Cl)c1`, the T/C was 87, 95, 98 % of control (2×) under setting [3]; 88, 98, 100 % of control (2×) under setting [4]; 92, 98 (2×), 120 % of control (dose: 8.0 mg/kg/injection, schedule: Q01DX010 (ip), vehicle: saline); 98, 100, 102, 104 % of control (dose: 16.0 mg/kg/injection, schedule: Q01DX010 (ip), vehicle: saline); 99, 100, 101 % of control under setting [9]. Also, the survivor count under setting [9] is reported as 3 of 6.
As to `CCCCNc1ncnc2c1cnn2C`, the survivor count runs as follows: under setting [7], 2 of 6 and 5 of 6; under setting [8], 0 of 6.
`C/C=C1/CN(C)C2Cc3c([nH]c4ccccc34)C(c3cc4[nH]c5c(c4cc3OC)CCN3CC4CC(C(C)O)C3C5(C(=O)OC)C4)CC1C2C(=O)OC` (configuration not stated): the survivor count reads like this: (dose: 20.0 mg/kg/injection, schedule: Q01DX010 (ip), vehicle: other) 3 of 6; (dose: 30.0 mg/kg/injection, schedule: Q01DX010 (ip), vehicle: other) 0 of 6; (dose: 40.0 mg/kg/injection, schedule: Q01DX010 (ip), vehicle: other) 0 of 6; (dose: 60.0 mg/kg/injection, schedule: Q01DX010 (ip), vehicle: other) 0 of 6.
For the molecule `Nc1nc2n[nH]nc2c(=O)[nH]1`, the T/C runs as follows: (dose: 12.5 mg/kg/injection, schedule: Q01DX010 (ip), vehicle: alkali diluted with saline) 125 (2×), 131, 132 % of control; under setting [10], 124, 127 (2×), 131, 133, 135, 137 % of control; (dose: 50.0 mg/kg/injection, schedule: Q01DX010 (ip), vehicle: alkali diluted with saline) 94, 124, 134, 135, 136 (2×), 140, 145 % of control; (dose: 100.0 mg/kg/injection, schedule: Q01DX010 (ip), vehicle: alkali diluted with saline) 136, 141, 144 (2×), 145, 146, 148, 157 % of control; (dose: 200.0 mg/kg/injection, schedule: Q01DX010 (ip), vehicle: alkali diluted with saline) 110, 124 [5 of 6 alive], 127 [5 of 6 alive], 130, 135, 136, 147, 162 % of control. Besides, under setting [10], the survivor count is 6 of 6.
On to `Nc1nc(=S)c2[nH]cnc2[nH]1`, for which the T/C (dose: 5.0 mg/kg/injection, schedule: Q01DX010 (ip), vehicle: saline) is 137 % of control and the T/C under setting [11] is 131 % of control.
For the molecule `CCN(CC)CCNc1ccc(C)c2sc3ccccc3c(=O)c12`, the survivor count under setting [12] is recorded as 0 of 6.
For `NC(Cn1ccc(=O)c(O)c1)C(=O)O` (configuration not stated), the survivor count (dose: 400.0 mg/kg/injection, schedule: Q01DX010 (ip), vehicle: saline) is recorded as 6 of 6.
On to `COC(=O)C1=COC(C)C2CN3CCc4c([nH]c5ccccc45)C3CC12` (configuration not stated), for which the survivor count under setting [12] is 6 of 6.
With `O=C(NO)c1ccncc1`, the survivor count by setting is: (dose: 750.0 mg/kg/injection, schedule: Q01DX010 (ip), vehicle: water) 3 of 6; (dose: 800.0 mg/kg/injection, schedule: Q01DX010 (ip), vehicle: water) 3 of 6.
In the case of `Nc1nc(=S)c2ncn(C3OC(CO)C(O)C3O)c2[nH]1` (configuration not stated), the survivor count (dose: 2.5 mg/kg/injection, schedule: Q01DX010 (ip), vehicle: saline) was 5 of 6.
As for `C[C@]12C=CC(=O)C=C1CC[C@@H]1[C@@H]2C(=O)C[C@@]2(C)[C@H]1CC[C@]2(O)C(=O)CO`, the survivor count reads like this: (dose: 25.0 mg/kg/injection, schedule: Q01DX010 (sc), vehicle: steroid suspending solution) 6 of 6; under setting [13], 6 of 10; (dose: 200.0 mg/kg/injection, schedule: Q01DX005 (sc), vehicle: steroid suspending solution) 10 of 10; (dose: 250.0 mg/kg/injection, schedule: Q01DX005 (sc), vehicle: steroid suspending solution) 10 of 10; under setting [14], 0 of 10, 3 of 10, 6 of 10, 10 of 10. Besides, the T/C under setting [13] is 90, 94, 100, 113 % of control [8 of 10 alive]; the T/C under setting [14] was 93 [9 of 10 alive] and 94 % of control.
As for `CCCCCCCCCCCCNCCCCCCCCCCCC`, where the note is “dose: 15.0 mg/kg/injection, schedule: Q01DX010 (ip), vehicle: other”, the survivor count is recorded as 1 of 6.
Regarding `C[C@@H]1C[C@@H]([C@H](O)CC2CC(=O)NC(=O)C2)C(=O)[C@@H](C)C1`, the T/C reads like this: under setting [15], 125 % of control; under setting [16], 125 % of control.
`CN(C)[C@@H]1C(=O)C(C(N)=O)=C(O)[C@@]2(O)C(=O)C3=C(O)c4c(O)cccc4C[C@H]3C[C@@H]12`: the survivor count is 6 of 6 under setting [6] and 0 of 6 (dose: 120.0 mg/kg/injection, schedule: Q01DX010 (ip), vehicle: saline).
Take `O=c1[nH]c(=O)n(C2CC(O)C(CO)O2)cc1F` (configuration not stated): the T/C reads like this: under setting [11], 135 % of control; under setting [15], 142 % of control; under setting [16], 125 % of control. Further, where the note is “dose: 80.0 mg/kg/injection, schedule: Q01DX010 (ip), vehicle: saline”, the survivor count was 6 of 6.
On to `O=c1cnn(C2OC(CO)C(O)C2O)c(=O)[nH]1` (configuration not stated), for which the survivor count is 6 of 6 (dose: 1500.0 mg/kg/injection, schedule: Q01DX010 (ip), vehicle: saline); 5 of 6 (dose: 1600.0 mg/kg/injection, schedule: Q01DX010 (ip), vehicle: saline); 5 of 6 (dose: 3100.0 mg/kg/injection, schedule: Q01DX010 (ip), vehicle: saline); 1 of 6 and 6 of 6 (dose: 3200.0 mg/kg/injection, schedule: Q01DX010 (ip), vehicle: saline).
